Some of these results come from one statement about several compounds together.
Experiment: Vesicle morphology and size by cryo-TEM / TEM
Assay type: physicochemical
Details: cryoTEM, spherical vesicles

Structure (SMILES)	vesicle diameter range
CCCCCC(OC(=O)CCCC(=O)OCC[N+](C)(C)C)C(O)C/C=C\CCCCCCCC(=O)NCCCCCCCCCCNC(=O)CCCCCCC/C=C\CC(O)C(CCCCC)OC(=O)CCCC(=O)OCC[N+](C)(C)C.[Cl-].[Cl-] (centres unmarked) [GLH-19]	50-120 nm
CCCCCC(OC(=O)C[N+](C)(C)CCOC(C)=O)C(O)C/C=C\CCCCCCCC(=O)NCCCCCCCCCCOC(=O)CCCCCCC/C=C\CC(O)C(CCCCC)OC(=O)C[N+](C)(C)CCOC(C)=O.[Cl-].[Cl-] (centres unmarked) [GLH-20]	50-120 nm

Reference: patent US20220072098A1 (priority 2012, published 2022)
